Assay results: PMC11024197
Results are given in words; binding and its absence hold for the method and conditions named. Some entries that bind do so weakly or less than the wild type.

By UniProt entry, the sequences of proteins in these tests, tags left out. Where a name states a change or a piece, a line headed by the entry shows the natural chain unless it says otherwise. Chains listed by the source or under a name are the forms on record and can include a tag or linker. Residues count along the entry.
PEX13 SH3 domain (residues 261-346) (Q92968, residues 261-346): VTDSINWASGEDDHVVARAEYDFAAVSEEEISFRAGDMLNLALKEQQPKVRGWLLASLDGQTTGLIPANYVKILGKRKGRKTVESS
PEX13 C-terminal peptide (351-403) with WT FxxxF motif (Q92968, form named): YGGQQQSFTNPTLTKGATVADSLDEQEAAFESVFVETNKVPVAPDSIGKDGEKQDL
PEX13 SH3 triple mutant V275Y/V276E/K304G (YEG) (Q92968, form named): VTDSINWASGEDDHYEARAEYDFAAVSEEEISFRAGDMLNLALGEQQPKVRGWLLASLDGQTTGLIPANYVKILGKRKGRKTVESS

How the values were obtained:
[1] = molecular target: PEX13 SH3 domain (residues 261-346) (human) (UniProt Q92968); assay: NMR titration; 15N-labelled PEX13 construct (100 µM reference) with unlabelled ligand added; 1H,15N correlation spectra; 298 K; 20 mM Tris pH 7.5, 50 mM NaCl; both purified
[2] = molecular target: PEX13 SH3 triple mutant V275Y/V276E/K304G (YEG) (human) (UniProt Q92968); assay: as above

Substance | binding [1] | binding [2]
PEX13 C-terminal peptide (351-403) with WT FxxxF motif (from UniProt Q92968 351-403) | binds | –
PEX13 PxxP peptide (49-61) (from UniProt Q92968 49-61) | – | binds
